Some peptides are written in HELM: one residue between dots, names in brackets for other building blocks, links after the first $.
Experiment: general procedure: recombinant production
Conditions: late stage modification step, analytical RP-HPLC

Substance: PEPTIDE1{G.G.A.G.H.V.P.E.Y.F.[dV].G.I.G.T.P.I.S.F.Y.G}$PEPTIDE1,PEPTIDE1,1:R1-8:R3$$$V2.0
- final HPLC purity: > 99.9%
